From patent US5157032A, “Mixed ligand complexes and uses thereof as binding agents and probes to DNA” (The Trustees of Columbia University In The City of New York, priority 1990, dated 1992)

Columns and labels:
[1] = system: CT DNA; experiment: Luminescence in presence of CT DNA; assay type: binding, calf; details: CT DNA 100 μM, buffer
Description: While a linear relationship of the luminescence is observed for Ru(bpy)2 (dppz)^2+ in iso-propanol as a function of temperature this is not the behavior seen when the complex is bound to DNA. When the complex, Ru(bpy)2 (dppz)^2+ is bound to cal-thymus (CT) DNA (100 μM) under low salt conditions at 25 ° C. a biexponential lifetime is observed. A short component which is assigned to a surface interaction, and a long component which is assigned to an intercalated species. As is shown in Table 1, the short component remains relatively unchanged until 70 ° C. when there is an abrupt decrease in the lifetime to 45 ns at 85° C. […] Under these conditions the CT DNA melts and the observed lifetimes of the complexes are similar to those lifetimes measured with single stranded DNA. […] In fact there is an abrupt decrease in the quantum yield at the melting temperature at this salt concentration. This decrease in quantum yield may be explained thus: when the complex is bound to the double stranded form the quenching ability of H2 O is inhibited while at the melting temperature the single stranded form of DNA cannot protect the complex from quenching of H2 O and therefore the observed luminescence is not as intense.

[2] = Luminescence in solvents without DNA; assay type: physicochemical; details: for luminescence λmax: λirr 482 nm
[3] = system: calf thymus DNA; experiment: Spectroscopic properties (absorption, emission, lifetime) on binding to calf thymus DNA; design: key to Emission λmax: b: Nonemissive complexes; details: for Absorption λmax bound / Emission λmax bound: bound to DNA; for Absorption Δλ / Emission Δλ: bound vs free; for Absorption λmax free / Emission λmax free / εfree / Emission Lifetime free: free complex; for Emission Lifetime free / Emission Lifetime bound, first component (1) / Emission Lifetime bound, second component (2): 20° C., air saturated; for Emission Lifetime bound, first component (1) / Emission Lifetime bound, second component (2): with DNA
Description: Instrumentation: NMR spectra were recorded on a Varian VXR-300MHz spectormeter. FABS were performed using a VG Analytical 7070EQ Mas Spectrometer (78), and elemental analyses were done by Galbraith Laboratories in Nashville, Tenn. UV-Visible absorbance spectal were recorded on a Varian CARY-219 absorbance spectorphotometer. Extinction coefficients for the compounds were determined versus ruthenium concentrations obtained by atomic absorption spectroscopy with known ruthenium standards. [Ru(bpy)3 ]Cl2 solutions were also employed for these determinations as an internal standard. A varian AA-875 atomic absorption spectrophotometer was used for these determinations.
Emission spectra were measured on a Perkin-Elmer LS-5 fluorescence spectrometer. The samples were excited at their corresponding isosbestic points. All the measurements were made at 20° C. in a thermostatted cuvette holder with 3 nm entrance slit and 10 nm exit slit. Ruthenium solutions employed were 7 μM in concentration and claf thymus DNA was added to a ration of 40:1 nucleotide/metal; ruthenuim-DNA soltuions were allowed to incubate for 15 minutes before enhanced spectra were recorded. The emission enhancement factors were measured by comparing the intensitites at the emission spectral mixima in the absence ad presence of DNA, under similar conditions.
The limunescence lifetime measurements were done on a PRA SPC (single photon countining) spectometer with some minor modifications. The samples were excited with a nitrogen filled tnynratron gated flash lamp and the data were collected using a Tracor Northern 1710 multichannel analyser. The data were then transferred to a PDP-11/03 computer and deconvoluted with PRA software. […] concentrated solution of DNA (5mM DNA-phosphate) in buffer was added to a solution of the metal complex (4 μM) in buffer and allowed to equilibrate. Lifetimes of the samples were measured 0.5 hr after the metal complexes were mixed with DNA. All measurements were made at 20° C. and under air saturated conditions.
Furthermore, for all the complexes, this electronic transition is perturbed on binding to DNA.

[Ru+2].c1ccc(-c2ccccn2)nc1.c1ccc(-c2ccccn2)nc1.c1ccc2nc3c4cccnc4c4ncccc4c3nc2c1 [Ru(bpy)2 (dppz)^2+]
luminescent lifetime τ, long component ([1]; 25 °C): 259 ns | luminescent lifetime τ, short component ([1]; 25 °C): 75 ns | luminescent lifetime τ, long component ([1]; 35 °C): 232 ns | luminescent lifetime τ, short component ([1]; 35 °C): 73 ns | luminescent lifetime τ, long component ([1]; 45 °C): 232 ns | luminescent lifetime τ, short component ([1]; 45 °C): 73 ns | luminescent lifetime τ, long component ([1]; 55 °C): 204 ns | luminescent lifetime τ, short component ([1]; 55 °C): 68 ns | luminescent lifetime τ, long component ([1]; 65 °C): 189 ns | luminescent lifetime τ, short component ([1]; 65 °C): 68 ns | luminescent lifetime τ, long component ([1]; 75 °C): 144 ns | luminescent lifetime τ, short component ([1]; 75 °C): 54 ns | luminescent lifetime τ, long component ([1]; 85 °C): 118 ns | luminescent lifetime τ, short component ([1]; 85 °C): 45 ns | luminescent lifetime τ ([2]; CH3 OH, 25 °C): 30 ns | luminescence λmax ([2]; acetonitrile): 615 nm | luminescence λmax ([2]; ethanol): 610 nm | luminescent lifetime τ ([2]; iso-propanol, 25 °C): 209 ns and 210 ns | luminescent lifetime τ ([2]; iso-propanol, 35 °C): 192 ns | luminescent lifetime τ ([2]; iso-propanol, 45 °C): 174 ns | luminescent lifetime τ ([2]; iso-propanol, 55 °C): 154 ns | luminescent lifetime τ ([2]; iso-propanol, 65 °C): 129 ns | luminescent lifetime τ ([2]; iso-propanol, 75 °C): 102 ns | intercept of lifetime vs temperature ([2]; isopropanol): 267 ns | slope of lifetime decrease ([2]; isopropanol): 2.1 nsdeg | decrease in the life with temperature ([2]; isopropanol, temperature increased): 102 ns

[Ru+2].c1ccc(-c2ccccn2)nc1.c1ccc(-c2ccccn2)nc1.c1cnc2c(c1)ccc1cccnc12 [Ru(bpy)2 (phen)^2+]
Absorption λmax bound [3]: 452 nm | Emission λmax bound [3]: 602 nm | Absorption Δλ [3]: 0 nm | Emission Δλ [3]: -9 nm | Absorption λmax free [3]: 452 nm | Emission λmax free [3]: 611 nm | εfree [3]: 16,000 M-1 cm-1 | Emission Lifetime free [3]: 450 nanoseconds | Emission Lifetime bound, first component (1) [3]: 430 ± 30 nanoseconds | Emission Lifetime bound, second component (2) [3]: 2100 ± 300 nanoseconds

N=C1C(=N)c2ccccc2-c2ccccc21.[Ru+2].c1ccc(-c2ccccn2)nc1.c1ccc(-c2ccccn2)nc1 [Ru(bpy)2 (phi)^2+]
Emission λmax [3]: b | Absorption λmax bound [3]: 548 nm | Absorption Δλ [3]: 13 nm | Absorption λmax free [3]: 535 nm | εfree [3]: 48,000 M-1 cm-1

[Ru+2].c1ccc(-c2ccccn2)nc1.c1ccc(-c2ccccn2)nc1.c1ccc(-c2ccccn2)nc1 [Ru(bpy)3^2+, reference compound]
Absorption λmax bound [3]: 450 nm | Emission λmax bound [3]: 618 nm | Absorption Δλ [3]: 0 nm | Emission Δλ [3]: 3 nm | Absorption λmax free [3]: 450 nm | Emission λmax free [3]: 615 nm | εfree [3]: 14,600 M-1 cm-1 | Emission Lifetime free [3]: 420 nanoseconds

[Ru+2].c1ccc(-c2ccccn2)nc1.c1cnc2c(c1)ccc1cccnc12.c1cnc2c(c1)ccc1cccnc12 [Ru(phen)2 (bpy)^2+]
Absorption λmax bound [3]: 448 nm | Emission λmax bound [3]: 604 nm | Absorption Δλ [3]: 2 nm | Emission Δλ [3]: -4 nm | Absorption λmax free [3]: 446 nm | Emission λmax free [3]: 608 nm | εfree [3]: 19,200 M-1 cm-1 | Emission Lifetime free [3]: 555 nanoseconds | Emission Lifetime bound, first component (1) [3]: 530 ± 30 nanoseconds | Emission Lifetime bound, second component (2) [3]: 2100 ± 260 nanoseconds

Values joined by “and” are separate entries in the source; they are usually repeats but may differ in a detail not shown here. Equal values may be shown once.
